Ki data for one compound are collected here from PMC11357054, “Azobenzenesulfonamide Carbonic Anhydrase Inhibitors as New Weapons to Fight Helicobacter pylori: Synthesis, Bioactivity Evaluation, In Vivo Toxicity, and Computational Studies” (Pharmaceuticals, 2024).

The chains behind the UniProt entries cited, without tags or fusion partners. Where a name states a change or a piece, a line headed by the entry shows the natural chain unless it says otherwise.
UniProt P61517: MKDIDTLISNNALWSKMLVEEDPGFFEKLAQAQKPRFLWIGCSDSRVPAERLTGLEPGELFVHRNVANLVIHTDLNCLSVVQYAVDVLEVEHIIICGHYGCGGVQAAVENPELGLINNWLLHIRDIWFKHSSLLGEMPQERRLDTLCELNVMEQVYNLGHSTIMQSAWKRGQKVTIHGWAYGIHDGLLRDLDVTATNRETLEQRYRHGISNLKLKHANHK

The target of assay [1] is T1, EcoβCA (Escherichia coli, UniProt P61517).
T1 construct: gene can; recombinant, obtained in-house
Put plainly: stopped-flow CO2 hydration. As to conditions: pH […] HEPES, […] Na2SO4, […] min preincubation, r.t.; read-out: KI (nM) * / Bacterial Isoforms / Eco βCA. Type of assay: biochemical. From the text: stopped-flow CO2 hydration on EcoβCA

In assay [2] the target is T2, HpβCA (Helicobacter pylori, UniProt Q9ZN54).
T2 construct: gene cynT; recombinant, obtained in-house
T2 sequence (Q9ZN54 1-221): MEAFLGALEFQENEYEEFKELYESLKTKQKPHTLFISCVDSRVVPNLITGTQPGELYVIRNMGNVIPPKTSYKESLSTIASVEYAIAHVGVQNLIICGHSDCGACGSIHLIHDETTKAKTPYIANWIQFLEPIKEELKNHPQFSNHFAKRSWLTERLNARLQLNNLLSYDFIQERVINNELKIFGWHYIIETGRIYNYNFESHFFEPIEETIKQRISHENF
Description: stopped-flow CO2 hydration. The class given is biochemical. The following applies: read-out: KI (nM) * / Bacterial Isoforms / Hp βCA. The source says: stopped-flow CO2 hydration on HpβCA

For the compound `CC(=O)Nc1nnc(S(N)(=O)=O)s1` [acetazolamide, reference compound], the Ki in assay [1] turned out to be 227 nM; in assay [2] it was 40 nM.
